The text below walks through data of PubChem BioAssay AID248 (DTP/NCI, 2004).

This test has as its system L1210 leukemia ip in BDF1 mice, survival T/C. Briefly: NCI In Vivo Anticancer Drug Screen. Data for tumor model L1210 Leukemia (intraperitoneal) in B6D2F1 (BDF1) mice. The note with it: T/C endpoint: mean survival time, higher T/C = longer survival.
[1] abbreviates: dose: 100.0 mg/kg/injection, schedule: Q04DX003 (ip), vehicle: saline with Tween-80.
The mark [2] stands for this setting: dose: 200.0 mg/kg/injection, schedule: Q04DX003 (ip), vehicle: saline with Tween-80.
Where [3] appears, read: dose: 400.0 mg/kg/injection, schedule: Q04DX003 (ip), vehicle: saline with Tween-80.
[4] abbreviates: dose: 400.0 mg/kg/injection, schedule: Q01DX001 (ip), vehicle: saline.
Setting [5] is: dose: 100.0 mg/kg/injection, schedule: Q04DX002 (ip), vehicle: Klucel (hydroxypropylcellulose) (HPC).
The mark [6] stands for this setting: dose: 200.0 mg/kg/injection, schedule: Q04DX002 (ip), vehicle: Klucel (hydroxypropylcellulose) (HPC).
Setting [7] is: dose: 400.0 mg/kg/injection, schedule: Q01DX001 (ip), vehicle: carboxymethylcellulose (CMC).
[8] abbreviates: dose: 50.0 mg/kg/injection, schedule: Q01DX009 (ip), vehicle: Klucel (hydroxypropylcellulose) (HPC).
[9] abbreviates: dose: 200.0 mg/kg/injection, schedule: Q01DX009 (ip), vehicle: Klucel (hydroxypropylcellulose) (HPC).
[10] abbreviates: dose: 400.0 mg/kg/injection, schedule: Q01DX009 (ip), vehicle: Klucel (hydroxypropylcellulose) (HPC).
Where [11] appears, read: dose: 200.0 mg/kg/injection, schedule: Q01DX Z (ip), vehicle: saline.

The structures appear in SMILES notation. The list does not hold the whole screen: it gathers tests that were run many times, whatever their T/C, doses with no T/C, and many T/C values between a quarter and a half above the control. Other doses and runs of a compound stand elsewhere. T/C is the treated group as % of the vehicle group. Some entries give survivors of the animals treated and no T/C: the source holds a T/C of zero for them, seemingly a mark for toxic or unscored doses. Some doses without a T/C left all or most animals alive at the check, yet need not have been tolerated: the source hardly ever lists a survival T/C far under the control, and the zero likely stands for such cases as well. Counts of survivors are from the toxicity check (mostly the fifth day) where no day follows; animals may have died later. Schedule codes are those of the source, read here as Q, the interval in days (D) or hours (H), X, the number of doses. Some doses were run more than once; their values stand side by side, smallest first. Some schedule codes hold Z or #, which are not explained here. For survival time, this PubChem deposit counts one and a half times the control or more as active, and values a quarter to a half above the control carry no call in these data; other NCI protocols may use other cut-offs.

As to `CC(C)=CCC/C(C)=C\C1N(C)CCCN1C`, the survivor count was 1 of 6 (dose: 100.0 mg/kg/injection, schedule: Q01DX009 (ip), vehicle: saline with Tween-80); 5 of 6 and 6 of 6 under setting [1]; 0 of 6 under setting [2]; 0 of 6 under setting [3].

Turning to `CC(C)=CCCC(C)CCO` (stereo not given), the survivor count under setting [4] is recorded as 0 of 4.

Turning to `C/C(CSc1ncnc2nc[nH]c12)=N\NC(N)=S`, the survivor count under setting [2] is 0 of 6.

Take `CC12C(=O)OCC1C1CCC2C1` (stereo not given): the survivor count by setting is: under setting [5], 1 of 3; under setting [6], 0 of 3; (dose: 400.0 mg/kg/injection, schedule: Q04DX002 (ip), vehicle: Klucel (hydroxypropylcellulose) (HPC)) 0 of 3.

`CN(c1ccccc1)P(=O)(N1CC1)N1CC1`: the T/C by setting is: (dose: 10.0 mg/kg/injection, schedule: Q01DX009 (ip), vehicle: carboxymethylcellulose (CMC)) 130 % of control; (dose: 22.0 mg/kg/injection, schedule: Q01DX001 (ip), vehicle: carboxymethylcellulose (CMC)) 139 % of control; (dose: 25.0 mg/kg/injection, schedule: Q01DX001 (ip), vehicle: carboxymethylcellulose (CMC)) 142 % of control; (dose: 33.0 mg/kg/injection, schedule: Q01DX001 (ip), vehicle: carboxymethylcellulose (CMC)) 134 % of control; (dose: 50.0 mg/kg/injection, schedule: Q01DX001 (ip), vehicle: carboxymethylcellulose (CMC), evaluated on day 30) 148 % of control; (dose: 50.0 mg/kg/injection, schedule: Q01DX001 (ip), vehicle: carboxymethylcellulose (CMC), run until all animals had died) 149 % of control. Moreover, the survivor count (dose: 75.0 mg/kg/injection, schedule: Q01DX001 (ip), vehicle: carboxymethylcellulose (CMC)) is reported as 4 of 6; the survivor count (dose: 100.0 mg/kg/injection, schedule: Q01DX001 (ip), vehicle: carboxymethylcellulose (CMC)) is 2 of 6; the survivor count (dose: 200.0 mg/kg/injection, schedule: Q01DX001 (ip), vehicle: carboxymethylcellulose (CMC)) is given as 4 of 6; the survivor count under setting [7] is 4 of 6.

For `CC1(C)CN1C1=C(F)C(=O)C(N2CC2(C)C)=C(F)C1=O`, the survivor count reads like this: (dose: 50.0 mg/kg/injection, schedule: Q04DX003 (ip), vehicle: saline) 3 of 6; (dose: 100.0 mg/kg/injection, schedule: Q04DX003 (ip), vehicle: saline) 0 of 6.

Take `CCOC(=O)Nc1cncc(NC(=O)OCC)n1`: for the setting “dose: 400.0 mg/kg/injection, schedule: Q01DX009 (ip), vehicle: water”, the survivor count is 3 of 6.

With `Cc1cc(C)c2c(c1)C(=O)C(=O)c1cc(C)cc(C)c1-2`, under setting [6], the T/C is 132 % of control.

With `CCOC(=O)Nc1cc2c(c(N)n1)N=C(CN(C)c1ccccc1)CN2`, the T/C reads like this: (dose: 12.5 mg/kg/injection, schedule: Q01DX009 (ip), vehicle: Klucel (hydroxypropylcellulose) (HPC)) 127 % of control; (dose: 25.0 mg/kg/injection, schedule: Q01DX009 (ip), vehicle: Klucel (hydroxypropylcellulose) (HPC)) 126 and 139 % of control; under setting [8], 136 % of control; (dose: 50.0 mg/kg/injection, schedule: Q04DX002 (ip), vehicle: Klucel (hydroxypropylcellulose) (HPC)) 127 % of control; under setting [5], 144 % of control. The survivor count was 6 of 6 under setting [8]; 0 of 6 (dose: 100.0 mg/kg/injection, schedule: Q01DX009 (ip), vehicle: Klucel (hydroxypropylcellulose) (HPC)); 0 of 6 under setting [9]; 2 of 3 under setting [6].

Regarding `C[N+](C)(C)CC(O)CCl` (stereo not given), the survivor count under setting [4] was 1 of 6.

As for `Cc1ccc(S(=O)(=O)Oc2c(Cl)c(Cl)c(Cl)c(Cl)c2Cl)cc1`, for the setting “dose: 400.0 mg/kg/injection, schedule: Q01DX009 (ip), vehicle: other”, the survivor count is reported as 6 of 6.

For the molecule `O=C(/C=C1\C(=O)Nc2ccccc21)/C=C1/C(=O)Nc2ccccc21`, the survivor count was 3 of 6 under setting [9] and 0 of 6 under setting [10].

In the case of `Nc1c(Cl)ncnc1NC1CCC(CO)C1` (stereo not given), the survivor count under setting [7] is 0 of 4.

For `CCc1ccccc1NC(=S)NC1CCCCC1`, the survivor count under setting [10] was 0 of 6.

For `COc1ccc(-n2c(=O)c(N=Nc3ccccc3OC)c(O)n(-c3ccccc3C)c2=S)cc1`, the survivor count (dose: 400.0 mg/kg/injection, schedule: Q01DX001 (ip), vehicle: Klucel (hydroxypropylcellulose) (HPC)) is listed as 3 of 6.

Consider `CNc1cc(C(=O)O)nc(NC)n1`, for which the survivor count by setting is: (dose: 100.0 mg/kg/injection, schedule: Q01DX Z (ip), vehicle: saline) 1 of 6; under setting [11], 0 of 6.

`Cc1ncc(CO)c(Nc2ccccc2Cl)n1`: the survivor count (dose: 100.0 mg/kg/injection, schedule: Q04DX003 (ip), vehicle: Klucel (hydroxypropylcellulose) (HPC)) is recorded as 3 of 6; the survivor count (dose: 200.0 mg/kg/injection, schedule: Q04DX003 (ip), vehicle: Klucel (hydroxypropylcellulose) (HPC)) is recorded as 0 of 6; the survivor count (dose: 400.0 mg/kg/injection, schedule: Q04DX003 (ip), vehicle: Klucel (hydroxypropylcellulose) (HPC)) is 0 of 6.

Consider `CCCC(C(=O)O)C1=CCCC1` (stereo not given), for which the survivor count (dose: 200.0 mg/kg/injection, schedule: Q01DX009 (ip), vehicle: saline with Tween-80) is recorded as 2 of 6 and the survivor count (dose: 400.0 mg/kg/injection, schedule: Q01DX009 (ip), vehicle: saline with Tween-80) is listed as 2 of 6.

In the case of `CCC[CH2][Sn]1([CH2]CCC)[O]OC(c2ccc(C(=O)OCC)cc2)[O]1` (stereo not given), the survivor count (dose: 12.5 mg/kg/injection, schedule: Q04DX002 (ip), vehicle: other) is given as 0 of 3 and the survivor count (dose: 25.0 mg/kg/injection, schedule: Q04DX002 (ip), vehicle: other) is on record as 0 of 3.

As to `CC(O)C#N` (stereo not given), the survivor count (dose: 10.0 mg/kg/injection, schedule: Q04DX003 (ip), vehicle: saline) is listed as 5 of 6 and the survivor count (dose: 20.0 mg/kg/injection, schedule: Q04DX003 (ip), vehicle: saline) was 1 of 6.

With `COc1ccccc1OCCN1Cc2ccccc2C1`, the survivor count under setting [3] was 2 of 6.

Turning to `CCCCCCCCCCCCCCCCNCCCN`, the survivor count under setting [3] was 1 of 6.

Turning to `CCN(CC)CC(C)(C)/C=N/N=C(N)N`, the survivor count (dose: 120.0 mg/kg/injection, schedule: Q01DX Z (ip), vehicle: saline) is 6 of 6.

In the case of `CC(C)(C#N)C(C)(C)C#N`, the survivor count (dose: 12.5 mg/kg/injection, schedule: Q04DX003 (ip), vehicle: saline with Tween-80) is recorded as 0 of 6; the survivor count (dose: 25.0 mg/kg/injection, schedule: Q04DX003 (ip), vehicle: saline with Tween-80) was 0 of 6 and 6 of 6; the survivor count (dose: 50.0 mg/kg/injection, schedule: Q04DX003 (ip), vehicle: saline with Tween-80) was 0 of 6 and 5 of 6; the survivor count under setting [1] is 0 of 6 and 6 of 6.

On to `c1ccc2c(c1)OCCOCCOCCOCCO2`, for which the survivor count reads like this: (dose: 100.0 mg/kg/injection, schedule: Q04DX002 (ip), vehicle: saline) 1 of 3; (dose: 200.0 mg/kg/injection, schedule: Q04DX002 (ip), vehicle: saline) 0 of 3.

For `Cc1ccc(Nc2nc(N)nc(N)c2N)cc1Cl`, the survivor count under setting [11] is 0 of 6.

On to `OCC1OC(n2ccc3c2ncn2ccnc32)C(O)C1O` (stereo not given), for which the survivor count (dose: 200.0 mg/kg/injection, schedule: Q01DX005 (ip), vehicle: saline) is recorded as 2 of 6 and the survivor count (dose: 200.0 mg/kg/injection, schedule: Q01DX009 (ip), vehicle: saline) is given as 5 of 6.

On to `Cc1nc(Cl)cc(Cl)c1C`, for which, under “dose: 400.0 mg/kg/injection, schedule: Q04DX003 (ip), vehicle: other”, the T/C was 125 % of control.

For `Nn1cnc2c(=S)nc[nH]c21`, where the note is “dose: 120.0 mg/kg/injection, schedule: Q01DX015 (ip), vehicle: other”, the T/C is 143 % of control. Further, for the setting “dose: 600.0 mg/kg/injection, schedule: Q01DX001 (ip), vehicle: other”, the survivor count is 2 of 4.
